Literature values in patent US20070212428A1, “METHODS AND COMPOSITIONS FOR TREATING MOOD DISORDER” (MOOD MANAGEMENT SCIENCES, INC., priority 2004, published 2007).
At least one structure is not confirmed: it was looked up by name or label, or the drawing left a doubt.

Tests used:
[1] = tested on: serotonergic effects of citalopram; settings: cited from earlier work
[2] = tested on: treatment resistant depression; settings: lithium added to citalopram, often within a few days; cited from earlier work

Compound: [Li] [lithium]
- effect on the serotonergic effects of citalopram [1]: increases
- patients who responded to lithium augmentation [2]: 45 of 69
